Experimental findings from the supplement of paper PMC5407854, “Inhibitor of ppGalNAc-T3-mediated O-glycosylation blocks cancer cell invasiveness and lowers FGF23 levels” (eLife, 2017) are described below.

The other results are listed elsewhere or left out. Most values lie at the level of the controls, where differences are scatter.

One assay deals with ppGalNAc-T3 sensor. The assay is described as follows: T3 sensor activation Q score (MG/GFP ratio z-score vs DMSO controls) (SD units); higher = more sensor activation (inhibition of ppGalNAc-T3 glycosylation). As to conditions: HEK293 sensor cells; 10 µM; 6 h. On the procedure:
(§1)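 Cells were treated with compound at 10 uM for 6 h, then MG/GFP ratio was read by flow cytometry (10,000 cells per well, duplicate wells). Q = (R - R_neg)/SD_neg relative to DMSO vehicle controls; the signal rises when the glycosyltransferase is inhibited.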

A further assay has as its system ppGalNAc-T2 sensor. The assay is described as follows: T2 sensor activation Q score (MG/GFP ratio z-score vs DMSO controls) (SD units); higher = more sensor activation (inhibition of ppGalNAc-T2 glycosylation). Conditions: HEK293 sensor cells; 10 µM; 6 h. The protocol:
as §1

For `O=C1CC(N2CCCCC2)C(=O)N1c1cccc(Cl)c1` (stereo not drawn), the “T3 sensor activation Q score” value in the assay with ppGalNAc-T3 sensor is -0.415. For the same compound, the “T2 sensor activation Q score” value in the assay on ppGalNAc-T2 sensor worked out at 0.48.

Regarding `Cc1ccc(C(=O)Nc2ccc(C(C)C)cc2)cc1`, in the assay on ppGalNAc-T3 sensor, the “T3 sensor activation Q score” value worked out at 0.125. In the assay on ppGalNAc-T2 sensor, the “T2 sensor activation Q score” value is -1.04.

Consider `O=C1c2ccccc2C(=O)N1c1ncn[nH]1`, for which the “T3 sensor activation Q score” value with ppGalNAc-T3 sensor was -0.37. In the assay on ppGalNAc-T2 sensor, the “T2 sensor activation Q score” value is -0.365.

Regarding `CC1CCCCN1C(=O)c1ccc(C(=O)N2CCCCC2C)cc1` (stereo not drawn), the “T3 sensor activation Q score” value in the assay with ppGalNAc-T3 sensor was -0.38. In addition, the “T2 sensor activation Q score” value in the assay with ppGalNAc-T2 sensor was determined as 1.02.
